# Experimental data published in paper doi:10.1101/2025.03.11.642660.
# Protein sequences, listed by entry. Tags and fused reporters are not part of them. Residues count along the entry.
# UniProt Q99836: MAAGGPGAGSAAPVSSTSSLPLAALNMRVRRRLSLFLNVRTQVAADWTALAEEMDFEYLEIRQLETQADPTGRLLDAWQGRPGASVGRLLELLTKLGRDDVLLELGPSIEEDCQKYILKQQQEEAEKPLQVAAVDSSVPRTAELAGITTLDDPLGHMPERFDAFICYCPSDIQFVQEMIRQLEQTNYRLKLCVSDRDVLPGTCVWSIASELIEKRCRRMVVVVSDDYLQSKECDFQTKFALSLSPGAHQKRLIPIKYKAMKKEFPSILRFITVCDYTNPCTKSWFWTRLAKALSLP
# UniProt O00206, residues 24-839: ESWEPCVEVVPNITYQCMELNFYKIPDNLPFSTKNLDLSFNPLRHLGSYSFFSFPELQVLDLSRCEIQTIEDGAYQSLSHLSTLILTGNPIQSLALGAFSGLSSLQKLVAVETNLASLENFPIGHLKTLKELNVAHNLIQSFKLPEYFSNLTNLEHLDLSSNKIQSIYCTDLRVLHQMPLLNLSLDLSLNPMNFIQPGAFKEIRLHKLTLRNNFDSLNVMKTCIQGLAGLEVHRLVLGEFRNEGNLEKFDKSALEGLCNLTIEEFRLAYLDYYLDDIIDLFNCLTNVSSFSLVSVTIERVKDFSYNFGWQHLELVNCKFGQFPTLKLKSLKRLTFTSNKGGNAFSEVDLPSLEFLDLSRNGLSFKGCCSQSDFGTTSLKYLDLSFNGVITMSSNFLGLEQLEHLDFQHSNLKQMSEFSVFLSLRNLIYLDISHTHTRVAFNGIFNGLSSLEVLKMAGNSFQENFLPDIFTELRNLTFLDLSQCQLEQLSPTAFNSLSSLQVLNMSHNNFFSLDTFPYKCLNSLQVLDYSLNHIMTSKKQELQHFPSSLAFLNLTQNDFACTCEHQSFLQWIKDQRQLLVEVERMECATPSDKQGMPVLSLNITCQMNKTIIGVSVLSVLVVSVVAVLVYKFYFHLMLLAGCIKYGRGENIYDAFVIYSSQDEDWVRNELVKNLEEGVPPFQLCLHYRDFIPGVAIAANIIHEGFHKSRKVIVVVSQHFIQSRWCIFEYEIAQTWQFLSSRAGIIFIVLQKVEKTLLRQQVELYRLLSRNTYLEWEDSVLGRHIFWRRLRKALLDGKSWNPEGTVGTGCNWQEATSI
# These are yes or no findings as the source states them, for the method shown. In cells and extracts the contact can be indirect. Some binding calls cover weakened binding; strength is not graded here.
# Target: MyD88 (human (endogenous in THP1)) (UniProt Q99836)
# Assay: co-IP
substance,measurement,value
TLR4 (from UniProt O00206 24-839) (receptor),binding,binds
